Source: PMC10038992
These are yes or no findings as the source states them, for the method shown. Binding seen in cells or lysates may run through a third protein. Some entries that bind do so weakly or less than the wild type. Tags and fused reporters may be left off the sequences shown. One block for each binder: values may come before it.

Key:
[1] = biological target: Cullin-3-myc (UniProt Q13618); experiment: co-IP; both partners as tagged constructs transfected in HEK293 cells; lysis in 1% NP-40, 150 mM NaCl, 50 mM Tris pH 8.0, 10% glycerol, 1 mM EDTA; antibody overnight at 4 °C, Dynabeads; immunoblot; KCTD7–Cullin-3 also after knock-down of calpain subunits (not affected)
[2] = biological target: T1, KCTD7-GFP (human) (UniProt Q96MP8); experiment: as above
T1 sequence: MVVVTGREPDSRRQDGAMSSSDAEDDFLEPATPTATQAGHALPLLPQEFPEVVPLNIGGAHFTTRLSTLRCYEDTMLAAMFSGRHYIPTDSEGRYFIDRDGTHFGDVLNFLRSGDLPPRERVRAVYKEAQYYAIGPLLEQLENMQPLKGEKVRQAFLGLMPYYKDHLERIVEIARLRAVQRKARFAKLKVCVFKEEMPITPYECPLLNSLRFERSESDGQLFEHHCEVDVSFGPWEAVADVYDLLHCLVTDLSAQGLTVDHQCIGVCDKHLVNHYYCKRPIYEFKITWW

[3] = biological target: T2, KCTD7-Flag (potassium channel tetramerization domain containing 7, Flag-tagged, wild type) (human) (UniProt Q96MP8); experiment: co-IP; Flag-tagged KCTD7 constructs transfected in HEK293 cells, endogenous calpain 1, calpain 2 and CAPNS1 detected by immunoblot
T2 sequence: T1 sequence

binding [1]: binds | binding [2]: binds
B1: CAPNS1-Flag (protein, UniProt P04632 1-268)
chain: MFLVNSFLKGGGGGGGGGGGLGGGLGNVLGGLISGAGGGGGGGGGGGGGGGGGGGGTAMRILGGVISAISEAAAQYNPEPPPPRTHYSNIEANESEEVRQFRRLFAQLAGDDMEVSATELMNILNKVVTRHPDLKTDGFGIDTCRSMVAVMDSDTTGKLGFEEFKYLWNNIKRWQAIYKQFDTDRSGTICSSELPGAFEAAGFHLNEHLYNMIIRRYSDESGNMDFDNFISCLVRLDAMFRAFKSLDKDGTGQIQVNIQEWLQLTMYS

binding [3]: binds
B2: CAPNS1 (regulatory subunit of m-calpain and μ-calpain; endogenous, HEK293) (protein, UniProt P04632 1-268)
chain: B1 chain
